Assay results taken from article PMC10154422.

Key:
APEX2-TACC3 [1] = target: APEX2-TACC3 (UniProt Q9Y6A5); assay: proximity labelling; APEX2-TACC3 in interphase synchronized JIMT-1 cells, biotinylation by H2O2, streptavidin pulldown, Western blot (Fig. 5I)
APEX2-TACC3 [2] = target: APEX2-TACC3 (UniProt Q9Y6A5); assay: proximity labelling; APEX2-TACC3 in mitotic JIMT-1 cells, H2O2 to induce biotinylation, streptavidin pulldown, immunoblotting (Supplementary Fig. S4B, C)

binding (APEX2-TACC3 [1]) | binding (APEX2-TACC3 [2]) | Molecule
binds | – | MBD2, endogenous in JIMT-1 (from UniProt Q9UBB5 1-411)
– | binds | Kinesin Family Member C1 (KIFC1), endogenous in JIMT-1 (protein, UniProt Q9BW19 1-673) MDPQRSPLLEVKGNIELKRPLIKAPSQLPLSGSRLKRRPDQMEDGLEPEKKRTRGLGATTKITTSHPRVPSLTTVPQTQGQTTAQKVSKKTGPRCSTAIATGLKNQKPVPAVPVQKSGTSGVPPMAGGKKPSKRPAWDLKGQLCDLNAELKRCRERTQTLDQENQQLQDQLRDAQQQVKALGTERTTLEGHLAKVQAQAEQGQQELKNLRACVLELEERLSTQEGLVQELQKKQVELQEERRGLMSQLEEKERRLQTSEAALSSSQAEVASLRQETVAQAALLTEREERLHGLEMERRRLHNQLQELKGNIRVFCRVRPVLPGEPTPPPGLLLFPSGPGGPSDPPTRLSLSRSDERRGTLSGAPAPPTRHDFSFDRVFPPGSGQDEVFEEIAMLVQSALDGYPVCIFAYGQTGSGKTFTMEGGPGGDPQLEGLIPRALRHLFSVAQELSGQGWTYSFVASYVEIYNETVRDLLATGTRKGQGGECEIRRAGPGSEELTVTNARYVPVSCEKEVDALLHLARQNRAVARTAQNERSSRSHSVFQLQISGEHSSRGLQCGAPLSLVDLAGSERLDPGLALGPGERERLRETQAINSSLSTLGLVIMALSNKESHVPYRNSKLTYLLQNSLGGSAKMLMFVNISPLEENVSESLNSLRFASKVNQCVIGTAQANRK

Results are given in words; binding and its absence hold for the method and conditions named. Binding seen in cells or lysates may run through a third protein. A yes stands for co-enrichment or nearness to the bait. Other partners may have been found.
